Measured values: PubChem BioAssay AID330 (DTP/NCI, 2004)
The list is a part of this screen's results and no random one: it is rich in T/C values a quarter to a half above the control, in often repeated tests (any T/C) and in doses without a T/C. Further doses and runs are listed elsewhere. T/C gives the treated animals as a percentage of the vehicle group. Some entries give survivors of the animals treated and no T/C: the source holds a T/C of zero for them, seemingly a mark for toxic or unscored doses. Some doses without a T/C left all or most animals alive at the check, yet need not have been tolerated: the source hardly ever lists a survival T/C far under the control, and the zero likely stands for such cases as well. Counts of survivors are from the toxicity check (mostly the fifth day) where no day follows; animals may have died later. Schedule codes are those of the source, taken here to give the interval after Q, in days (D) or hours (H), and the number of doses after X. Some entries hold several experiments; the values are given in rising order. Where survival is the endpoint, this PubChem deposit counts one and a half times the control or more as active, and values a quarter to a half above the control carry no call in these data; other NCI protocols may use other cut-offs. Some T/C values carry the count of animals alive at the toxicity check (mostly the fifth day); where none is given, no animal had died by that day.

System: P388 leukemia ip, CD2F1 mice, survival T/C
Test: NCI In Vivo Anticancer Drug Screen. Data for tumor model P388 Leukemia (intraperitoneal) in CD2F1 (CDF1) mice
Details: T/C endpoint: median survival time, higher T/C = longer survival
[1] = dose: 6.25 mg/kg/injection, schedule: Q01DX009 (ip), vehicle: suspension in saline

Nc1nc(N)c2nc(CNc3ccc(C(=O)NC(CC(=O)O)C(=O)O)cc3)cnc2n1 (stereo not given)
T/C (dose: 25.0 mg/kg/injection, schedule: Q01DX009 (ip), vehicle: saline with Tween-80): 145 % of control | T/C (dose: 50.0 mg/kg/injection, schedule: Q04DX003 (ip), vehicle: saline with Tween-80): 145 % of control [5 of 6 alive] | T/C (dose: 150.0 mg/kg/injection, schedule: Q04DX003 (ip), vehicle: saline with Tween-80): 133 % of control [5 of 6 alive]

CCCCCCCCCCCCCCCC[N+](C)(C)CC#N
survivor count (dose: 50.0 mg/kg/injection, schedule: Q01DX009 (ip), vehicle: saline): 1 of 6

c1ccc(-c2cc3c(cc4c5nncn5ncn34)o2)cc1
survivor count (dose: 60.0 mg/kg/injection, schedule: Q01DX005 (ip), vehicle: saline with Tween-80): 6 of 6 | survivor count (dose: 120.0 mg/kg/injection, schedule: Q01DX005 (ip), vehicle: saline with Tween-80): 6 of 6

O=C(c1ccccc1)C(CN1CCCC1)CN1CCCC1
survivor count (dose: 100.0 mg/kg/injection, schedule: Q01DX005 (ip), vehicle: saline): 0 of 6 | survivor count (dose: 200.0 mg/kg/injection, schedule: Q01DX005 (ip), vehicle: saline): 0 of 6

Nc1nc(-c2ccccc2)nc(-c2ccccc2)n1
T/C [1]: 125 % of control | survivor count [1]: 6 of 6 | survivor count (dose: 25.0 mg/kg/injection, schedule: Q01DX009 (ip), vehicle: saline): 6 of 6

CC1CP(c2ccccc2)(c2ccccc2)(c2ccccc2)OC1(C(=O)c1ccccc1)c1ccccc1 (stereo not given)
survivor count (dose: 12.5 mg/kg/injection, schedule: Q01DX009 (ip), vehicle: saline with Tween-80): 4 of 6

Cc1cc(C)c(S(=O)(=O)OCC2OC(OC3(COS(=O)(=O)c4c(C)cc(C)cc4C)OC(COS(=O)(=O)c4c(C)cc(C)cc4C)C(O)C3O)C(O)C(O)C2O)c(C)c1 (stereo not given)
survivor count (dose: 50.0 mg/kg/injection, schedule: Q01DX009 (ip), vehicle: Klucel (hydroxypropylcellulose) (HPC)): 6 of 6 | survivor count (dose: 100.0 mg/kg/injection, schedule: Q01DX009 (ip), vehicle: Klucel (hydroxypropylcellulose) (HPC)): 4 of 6 and 6 of 6 | survivor count (dose: 200.0 mg/kg/injection, schedule: Q01DX009 (ip), vehicle: Klucel (hydroxypropylcellulose) (HPC)): 6 of 6
